In PMC2793518:
Results are given in words; binding and its absence hold for the method and conditions named. Some results given as binding are weak or reduced against the parent protein; the word gives no strength.

Amino acid sequences for entries named in this document (tags omitted). Residues count along the entry.
UniProt P78310, residues 20-365: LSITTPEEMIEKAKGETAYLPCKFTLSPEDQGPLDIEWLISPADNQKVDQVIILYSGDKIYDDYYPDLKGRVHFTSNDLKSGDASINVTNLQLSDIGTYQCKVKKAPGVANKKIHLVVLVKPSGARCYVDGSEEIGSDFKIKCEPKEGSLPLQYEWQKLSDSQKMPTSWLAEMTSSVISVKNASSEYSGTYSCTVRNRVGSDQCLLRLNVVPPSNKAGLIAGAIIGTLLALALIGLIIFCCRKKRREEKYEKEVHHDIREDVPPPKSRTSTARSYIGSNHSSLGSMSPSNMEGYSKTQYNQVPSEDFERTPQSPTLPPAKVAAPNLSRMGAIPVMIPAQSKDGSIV
UniProt P15529, residues 35-392: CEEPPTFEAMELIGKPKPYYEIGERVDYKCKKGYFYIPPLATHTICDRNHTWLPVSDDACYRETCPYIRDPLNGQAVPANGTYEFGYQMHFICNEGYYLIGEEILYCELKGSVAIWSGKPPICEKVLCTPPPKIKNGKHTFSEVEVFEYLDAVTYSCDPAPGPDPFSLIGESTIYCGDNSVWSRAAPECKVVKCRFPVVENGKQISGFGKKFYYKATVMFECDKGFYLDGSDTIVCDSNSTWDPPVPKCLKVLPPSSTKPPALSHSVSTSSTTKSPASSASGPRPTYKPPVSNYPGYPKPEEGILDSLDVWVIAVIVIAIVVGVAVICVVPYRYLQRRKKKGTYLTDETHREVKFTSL

Key:
[1] = molecular target: CAR on CHO cells stably transfected with CAR cDNA (UniProt P78310); experiment: flow cytometry on cells; CHO-CAR and CHO-control transfectants incubated 2 hr at 37°C with 0.5 mL supernatant of Ad5-CRAD infected A549 cultures, washed; cell surface fiber detected with 4D2 mAb
[2] = molecular target: CAR on A549 cells (human (endogenous in A549)) (UniProt P78310); experiment: flow cytometry on cells; fresh A549 cells incubated 2 hr at 37°C (also 0°C) with supernatants of Ad5-CRAD infected A549 cultures (whole, <300 KDa or >300 KDa fraction), washed; fiber detected with 4D2 mAb, CAR with RmcB mAb
[3] = molecular target: CAR on A549 cells (human (endogenous in A549)) (UniProt P78310); experiment: flow cytometry on cells; A549 cells first incubated 2 hr at 37°C with 2 µg/ml recombinant Ad5 or Ad35 fiber knob, washed, then 2 hr at 37°C with 0.5 mL supernatant of Ad5-CRAD or Ad5F35-CRAD infected cultures; endogenous fiber detected with 4D2 mAb
[4] = molecular target: CAR on A549 cells (human (endogenous in A549)) (UniProt P78310); experiment: flow cytometry on cells; A549 cultures infected with CRAD (low MOI, days 3 to 7; or MOI 5 or 50, 12 to 24 hr) or WT adenoviruses (until CPE or day 10); cell surface fiber detected with 4D2 mAb, CAR with RmcB mAb, CD46 with E4.3, J4.48 or MEM-258 mAb; staining on ice
[5] = molecular target: CD46 on A549 cells (human (endogenous in A549)) (UniProt P15529); experiment: as above

Measured: binding

B1: Ad5 fiber (free trimeric fiber molecules released from Ad5-CRAD or WT Ad5 infected cells) (protein, UniProt P11818 1-581)
chain: MKRARPSEDTFNPVYPYDTETGPPTVPFLTPPFVSPNGFQESPPGVLSLRLSEPLVTSNGMLALKMGNGLSLDEAGNLTSQNVTTVSPPLKKTKSNINLEISAPLTVTSEALTVAAAAPLMVAGNTLTMQSQAPLTVHDSKLSIATQGPLTVSEGKLALQTSGPLTTTDSSTLTITASPPLTTATGSLGIDLKEPIYTQNGKLGLKYGAPLHVTDDLNTLTVATGPGVTINNTSLQTKVTGALGFDSQGNMQLNVAGGLRIDSQNRRLILDVSYPFDAQNQLNLRLGQGPLFINSAHNLDINYNKGLYLFTASNNSKKLEVNLSTAKGLMFDATAIAINAGDGLEFGSPNAPNTNPLKTKIGHGLEFDSNKAMVPKLGTGLSFDSTGAITVGNKNNDKLTLWTTPAPSPNCRLNAEKDAKLTLVLTKCGSQILATVSVLAVKGSLAPISGTVQSAHLIIRFDENGVLLNNSFLDPEYWNFRNGDLTEGTAYTNAVGFMPNLSAYPKSHGKTAKSNIVSQVYLNGDKTKPVTLTITLNGTQETGDTTPSAYSMSFSWDWSGHNYINEIFATSSYTFSYIAQE
binds: [1] | [2] | [3] | [4]

B2: Ad37 fiber (protein, UniProt Q64823 1-365)
chain: MSKRLRVEDDFNPVYPYGYARNQNIPFLTPPFVSSDGFKNFPPGVLSLKLADPITITNGDVSLKVGGGLTLQDGSLTVNPKAPLQVNTDKKLELAYDNPFESSANKLSLKVGHGLKVLDEKSAAGLKDLIGKLVVLTGKGIGTENLENTDGSSRGIGINVRAREGLTFDNDGYLVAWNPKYDTRTLWTTPDTSPNCTIAQDKDSKLTLVLTKCGSQILANVSLIVVAGKYHIINNKTNPKIKSFTIKLLFNKNGVLLDNSNLGKAYWNFRSGNSNVSTAYEKAIGFMPNLVAYPKPSNSKKYARDIVYGTIYLGGKPDQPAVIKTTFNQETGCEYSITFNFSWSKTYENVEFETTSFTFSYIAQE
binds: [4] | [5]
